Laboratory results as given in article doi:10.1101/2021.01.19.427293.

Key:
[1] = target: T1, MBP-tagged PLL4 (6xHis-MBP-PLL4) (Arabidopsis thaliana) (UniProt Q9ZV25); assay: pull-down
T1 sequence: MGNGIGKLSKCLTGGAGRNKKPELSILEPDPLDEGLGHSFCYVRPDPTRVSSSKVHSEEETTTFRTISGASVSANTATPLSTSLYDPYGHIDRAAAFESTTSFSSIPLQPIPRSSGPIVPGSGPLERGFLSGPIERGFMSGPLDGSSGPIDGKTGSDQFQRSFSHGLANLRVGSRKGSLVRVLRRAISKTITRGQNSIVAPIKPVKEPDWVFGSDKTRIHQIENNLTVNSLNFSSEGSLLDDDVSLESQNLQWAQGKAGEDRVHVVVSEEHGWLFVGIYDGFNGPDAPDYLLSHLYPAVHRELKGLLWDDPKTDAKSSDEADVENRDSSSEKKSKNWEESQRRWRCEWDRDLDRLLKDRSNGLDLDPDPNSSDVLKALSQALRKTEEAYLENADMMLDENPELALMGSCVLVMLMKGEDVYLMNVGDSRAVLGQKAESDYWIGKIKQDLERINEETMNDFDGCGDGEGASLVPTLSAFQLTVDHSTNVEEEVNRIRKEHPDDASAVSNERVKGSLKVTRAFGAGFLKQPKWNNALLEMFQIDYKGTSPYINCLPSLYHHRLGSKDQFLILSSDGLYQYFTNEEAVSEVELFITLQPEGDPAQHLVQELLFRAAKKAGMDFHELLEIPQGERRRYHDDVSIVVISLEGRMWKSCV

[2] = target: T2, MBP-tagged POL (6xHis-MBP-POL) (Arabidopsis thaliana) (UniProt Q8RWN7); assay: pull-down
T2 sequence: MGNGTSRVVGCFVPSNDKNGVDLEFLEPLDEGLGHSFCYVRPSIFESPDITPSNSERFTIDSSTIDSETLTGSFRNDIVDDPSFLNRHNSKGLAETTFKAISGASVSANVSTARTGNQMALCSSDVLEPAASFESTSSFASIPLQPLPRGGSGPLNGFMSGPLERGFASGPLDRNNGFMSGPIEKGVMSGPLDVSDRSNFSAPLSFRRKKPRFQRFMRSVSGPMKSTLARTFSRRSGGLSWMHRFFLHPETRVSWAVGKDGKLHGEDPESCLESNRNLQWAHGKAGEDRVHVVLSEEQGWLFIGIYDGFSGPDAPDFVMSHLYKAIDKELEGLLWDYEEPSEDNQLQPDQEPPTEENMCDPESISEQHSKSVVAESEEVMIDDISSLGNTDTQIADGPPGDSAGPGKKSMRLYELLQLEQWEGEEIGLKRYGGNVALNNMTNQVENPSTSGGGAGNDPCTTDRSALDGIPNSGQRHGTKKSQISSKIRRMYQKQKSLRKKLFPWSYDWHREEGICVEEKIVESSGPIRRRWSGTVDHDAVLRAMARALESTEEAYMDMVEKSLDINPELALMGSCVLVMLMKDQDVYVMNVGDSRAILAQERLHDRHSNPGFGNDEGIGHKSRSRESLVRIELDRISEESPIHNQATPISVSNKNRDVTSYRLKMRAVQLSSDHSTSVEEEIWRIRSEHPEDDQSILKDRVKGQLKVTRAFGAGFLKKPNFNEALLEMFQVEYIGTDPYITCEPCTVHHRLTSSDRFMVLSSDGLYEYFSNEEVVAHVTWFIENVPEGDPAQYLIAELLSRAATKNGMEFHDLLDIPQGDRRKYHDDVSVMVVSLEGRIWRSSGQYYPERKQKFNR

[3] = target: … SENSING 2 (FLS2)-GFP (Arabidopsis thaliana) (UniProt Q9FL28); assay: co-IP
[4] = target: … SENSING 2 (FLS2)-GFP (Arabidopsis thaliana) (UniProt Q9FL28); assay: co-IP; remark: listed apart in the source

6xHis-tagged cytosolic domain of EFR (6xHis-EFR-CD) (Arabidopsis thaliana) (domain or fragment)
binding [1]: binds

GST-tagged cytosolic domain of BAM3 (6xHis-GST-BAM3-CD) (Arabidopsis thaliana) (domain or fragment)
binding [2]: binds

PLL4^3A, HA-tagged (phospho-dead variant of PLL4) (from UniProt Q9ZV25) (enzyme)
binding [3]: binds
binding [4]: binds

Like-named read-outs stand apart in the source and are kept apart here. No constants are given. Whether binding was seen depends on the method and setting. A result given as binding can be weak or reduced; the word gives no strength. For some of these results: Where a sequence is shown, tags or fusion partners need not be part of it. For some of these results: Binding seen in cells or lysates may run through a third protein.
